# Source: article PMC5996148
# The list shows a part of the results.
# Assays:
# Assay in all cases: protein microarray (ProtoArray v5.0), streptavidin-Alexa Fluor 647
# Conditions in all cases: 3'-biotin; 20 mM Tris (pH 7.5), 5 mM MgCl2, 100 mM KCl, 0.1% Tween-20, A/T-rich and random oligonucleotide blockers; temperature not stated; high values mean tight binding
# [1] = test system: LONRF2 (human)
# [2] = test system: LPXN (human)
# [3] = test system: LRP10 (human)
# [4] = test system: LRRC14 (human)
# [5] = test system: LRRIQ2 (human)
# [6] = test system: LTB (human)
# [7] = test system: LXN (human)
# [8] = test system: LY6E (human)
# [9] = test system: LY6G6C (human)
# [10] = test system: LYPD1 (human)
# [11] = test system: LYPLAL1 (human)
# [12] = test system: LYSMD2 (human)
# [13] = test system: LYZL6 (human)
# [14] = test system: LZIC (human)
# [15] = test system: Lactation elevated protein 1 (human)
# [16] = test system: Lactoylglutathione lyase (human)
# [17] = test system: Leiomodin-1 (human)
# [18] = test system: Leptin receptor gene-related protein (human)
# [19] = test system: Leucine carboxyl methyltransferase 1 (human)
# [20] = test system: Leukemia-associated protein 1 (human)
sequence,measurement,setting,value
GGGGACAGGGGTATGGGGAGGGG [G4-3 biotinylated (CtG)],binding signal,[1],-0.29 z-score
same,binding signal,[2],-0.336 z-score
same,binding signal,[3],-0.308 z-score
same,binding signal,[4],-0.307 z-score
same,binding signal,[5],-0.329 z-score
same,binding signal,[6],-0.33 z-score
same,binding signal,[7],-0.303 z-score
same,binding signal,[8],-0.329 z-score
same,binding signal,[9],-0.329 z-score
same,binding signal,[10],-0.313 z-score
same,binding signal,[11],-0.328 z-score
same,binding signal,[12],-0.337 z-score
same,binding signal,[13],-0.336 z-score
same,binding signal,[14],-0.338 z-score
same,binding signal,[15],-0.323 z-score
same,binding signal,[16],-0.301 z-score
same,binding signal,[17],3.3 z-score
same,binding signal,[18],-0.328 z-score
same,binding signal,[19],-0.327 z-score
same,binding signal,[20],-0.306 z-score

# Another view of part of the listing above.
sequence | measurement | setting | value
GGGGACAGGGGTATGGGGAGGGG [G4-3 biotinylated (CtG)] | binding signal | [12] | -0.337 z-score
same | binding signal | [13] | -0.336 z-score
